According to PubChem BioAssay AID328 (DTP/NCI, 2004):
The list does not hold the whole screen: it is rich in T/C values a quarter to a half above the control, in often repeated tests (any T/C) and in doses without a T/C. Further doses and runs are listed elsewhere. T/C gives the treated animals as a percentage of the vehicle group. Some doses have a count of surviving animals in place of a T/C: the source holds a T/C of zero for them, seemingly a mark for toxic or unscored doses. Some survivor counts are full or nearly so, which does not show that the dose was tolerated: the source hardly ever lists a survival T/C far under the control, and the zero likely stands for such cases as well. Survivors were counted at the toxicity check, usually on the fifth day, unless a day is given; later deaths do not show. Schedules are NCI's codes, taken here to give the interval after Q, in days (D) or hours (H), and the number of doses after X. Some doses were run more than once; the values are given in rising order. Where survival is the endpoint, the PubChem record calls one and a half times the control and up active, and a quarter to a half above the control has no call in these data; cut-offs in other NCI protocols can differ. Counts like (3×) give the number of equal values in this list. Some T/C values carry the count of animals alive at the toxicity check (mostly the fifth day); without a count, all were alive then.

Test system: BDF1 mice, P388 leukemia ip, median survival T/C
Assay: NCI In Vivo Anticancer Drug Screen. Data for tumor model P388 Leukemia (intraperitoneal) in B6D2F1 (BDF1) mice
Conditions: T/C endpoint: median survival time, higher T/C = longer survival
Outline: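 Each value expresses how treatment altered survival: treated-mouse outcome over vehicle-mouse outcome, both groups bearing the transplanted tumour.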

[1] = dose: 400.0 mg/kg/injection, schedule: Q01DX009 (ip), vehicle: saline with Tween-80
[2] = dose: 6.0 mg/kg/injection, schedule: Q01DX009 (ip), vehicle: saline with Tween-80
[3] = dose: 200.0 mg/kg/injection, schedule: Q01DX009 (ip), vehicle: saline with Tween-80
[4] = dose: 200.0 mg/kg/injection, schedule: Q04DX003 (ip), vehicle: saline with Tween-80
[5] = dose: 50.0 mg/kg/injection, schedule: Q01DX009 (ip), vehicle: saline
[6] = dose: 75.0 mg/kg/injection, schedule: Q01DX009 (ip), vehicle: saline
[7] = dose: 300.0 mg/kg/injection, schedule: Q01DX009 (ip), vehicle: saline

For `N#Cc1nc2nc(C(F)(F)F)[nH]c2nc1C#N`, the survivor count (dose: 6.25 mg/kg/injection, schedule: Q01DX009 (ip), vehicle: saline with Tween-80) was 6 of 6, the survivor count (dose: 25.0 mg/kg/injection, schedule: Q01DX009 (ip), vehicle: saline with Tween-80) was 3 of 6 and the survivor count (dose: 50.0 mg/kg/injection, schedule: Q04DX003 (ip), vehicle: saline with Tween-80) was 5 of 6. For the same compound, the survivor count (dose: 100.0 mg/kg/injection, schedule: Q04DX003 (ip), vehicle: saline with Tween-80) was 2 of 6.

With `c1ccc(OCC2CO2)cc1` (stereo not given) the T/C [1] was 125 and 146 % of control.

For `CC(=O)Nc1cc2c(cc1[N+](=O)[O-])-c1ccccc1C2O` (stereo not given), the survivor count [1] was 4 of 6.

In the case of `CC(=O)O[C@@H]1C[C@@]2(C)[C@@H]3CC=C4[C@@H](C[C@H](O)C(=O)C4(C)C)[C@]3(C)C(=O)C[C@]2(C)[C@H]1[C@@](C)(O)C(=O)/C=C/C(C)(C)OC(C)=O`, the T/C (dose: 6.25 mg/kg/injection, schedule: Q01DX010 (ip), vehicle: carboxymethylcellulose (CMC)) is reported as 127 % of control, the T/C (dose: 50.0 mg/kg/injection, schedule: Q01DX010 (ip), vehicle: carboxymethylcellulose (CMC)) is reported as 136 % of control and the survivor count (dose: 100.0 mg/kg/injection, schedule: Q01DX010 (ip), vehicle: carboxymethylcellulose (CMC)) is reported as 5 of 6.

`CN=C(NN(C)C)c1ccc(NC(=O)c2ccc(C(=O)Nc3ccc(C(=NC)NN(C)C)cc3)cc2)cc1` was tested, and the T/C [2] was 141 % of control.

In the case of `CCCCN(c1ccccc1)c1ncnc2c1cnn2C`, the survivor count [3] is reported as 5 of 6.

For `CS(=O)(=O)OCCN(CCOS(C)(=O)=O)c1ccc(C(=O)O)cc1`, the T/C (dose: 132.0 mg/kg/injection, schedule: Q04DX003 (ip), vehicle: saline with Tween-80) was 145 % of control and the T/C [4] was 136 % of control.

`NNc1ncnc2c(C3OC(CO)C(O)C3O)[nH]nc12` (stereo not given) was tested, and the T/C (dose: 150.0 mg/kg/injection, schedule: Q01DX009 (ip), vehicle: water) was 130 % of control [5 of 6 alive].

`CCCCCCCCC(=O)c1c(OC)oc(C=O)cc1=O` was tested, and the T/C (dose: 9.38 mg/kg/injection, schedule: Q01DX009 (ip), vehicle: Klucel (hydroxypropylcellulose) (HPC)) was 126 % of control, the T/C (dose: 18.75 mg/kg/injection, schedule: Q01DX009 (ip), vehicle: Klucel (hydroxypropylcellulose) (HPC)) was 126 % of control and the survivor count (dose: 75.0 mg/kg/injection, schedule: Q01DX009 (ip), vehicle: Klucel (hydroxypropylcellulose) (HPC)) was 6 of 6. For the same compound, the survivor count (dose: 150.0 mg/kg/injection, schedule: Q01DX009 (ip), vehicle: Klucel (hydroxypropylcellulose) (HPC)) was 0 of 6 and the survivor count (dose: 300.0 mg/kg/injection, schedule: Q01DX009 (ip), vehicle: Klucel (hydroxypropylcellulose) (HPC)) was 0 of 6.

In the case of `CCCN(/C=C/C=C/C=[N+](CCC)CCC)CCC`, the T/C (dose: 0.1 mg/kg/injection, schedule: Q01DX009 (ip), vehicle: saline) is reported as 135 % of control, the T/C (dose: 0.2 mg/kg/injection, schedule: Q01DX009 (ip), vehicle: saline) is reported as 132 and 143 % of control and the T/C (dose: 0.4 mg/kg/injection, schedule: Q01DX009 (ip), vehicle: saline) is reported as 145 % of control.

With `CCOC(=O)c1cnn(C(N)=S)c1N` the survivor count (dose: 100.0 mg/kg/injection, schedule: Q01DX009 (ip), vehicle: saline with Tween-80) was 5 of 6 and the survivor count [3] was 4 of 6.

With `CCN(CCNc1ccc(C)c2sc3ccccc3c(=O)c12)CC(C)(C)O` the T/C [5] was 130 % of control, the T/C [6] was 145 % of control and the T/C (dose: 99.0 mg/kg/injection, schedule: Q01DX009 (ip), vehicle: saline) was 145 % of control. For the same compound, the T/C (dose: 132.0 mg/kg/injection, schedule: Q04DX003 (ip), vehicle: saline) was 131 % of control, the T/C (dose: 200.0 mg/kg/injection, schedule: Q04DX003 (ip), vehicle: saline) was 140 % of control and the survivor count (dose: 225.0 mg/kg/injection, schedule: Q01DX009 (ip), vehicle: saline) was 5 of 6. The survivor count [7] was 6 of 6.

`NNc1ncnc2c1ncn2C1OC(CO)C(O)C1O` (stereo not given) was tested, and the T/C (dose: 30.0 mg/kg/injection, schedule: Q01DX010 (ip), vehicle: saline) was 127 % of control and the survivor count (dose: 120.0 mg/kg/injection, schedule: Q01DX010 (ip), vehicle: saline) was 6 of 6.

With `NC1CSSC1` the T/C (dose: 0.78 mg/kg/injection, schedule: Q01DX009 (ip), vehicle: water, evaluated on day 21) was 106 % of control, the T/C (dose: 0.78 mg/kg/injection, schedule: Q01DX009 (ip), vehicle: water, evaluated on day 30) was 97 and 108 % of control and the survivor count (dose: 0.78 mg/kg/injection, schedule: Q01DX009 (ip), vehicle: water) was 6 of 6. The T/C (dose: 1.56 mg/kg/injection, schedule: Q01DX009 (ip), vehicle: water, evaluated on day 21) was 108 % of control, the T/C (dose: 1.56 mg/kg/injection, schedule: Q01DX009 (ip), vehicle: water, evaluated on day 30) was 94, 100, 101 % of control and the T/C (dose: 3.12 mg/kg/injection, schedule: Q01DX009 (ip), vehicle: water, evaluated on day 21) was 101 % of control. The T/C (dose: 3.12 mg/kg/injection, schedule: Q01DX009 (ip), vehicle: water, evaluated on day 30) was 93, 97, 171 % of control, the survivor count (dose: 12.5 mg/kg/injection, schedule: Q01DX009 (ip), vehicle: water) was 5 of 6 and the survivor count (dose: 12.5 mg/kg/injection, schedule: Q04DX003 (ip), vehicle: water) was 0 of 6.

`CC[C@H]1CN2CCc3cc(OC)c(OC)cc3[C@@H]2C[C@@H]1C[C@H]1NCCc2cc(O)c(OC)cc21` was tested, and the T/C (dose: 0.2 mg/kg/injection, schedule: Q01DX010 (ip), vehicle: saline) was 127 % of control, the T/C (dose: 0.5 mg/kg/injection, schedule: Q01DX010 (ip), vehicle: saline) was 136 % of control and the survivor count (dose: 2.0 mg/kg/injection, schedule: Q01DX010 (ip), vehicle: saline) was 6 of 6. The survivor count (dose: 4.0 mg/kg/injection, schedule: Q01DX010 (ip), vehicle: saline) was 0 of 6 and 6 of 6 and the survivor count (dose: 16.0 mg/kg/injection, schedule: Q01DX010 (ip), vehicle: saline) was 5 of 6.

`COc1cccc(N2C(N)=NC(N)=NC2(C)C)c1` was tested, and the T/C (dose: 37.5 mg/kg/injection, schedule: Q01DX009 (ip), vehicle: Klucel (hydroxypropylcellulose) (HPC)) was 144 % of control.

`O=S(=O)(O)N(O)c1ccccc1` was tested, and the survivor count (dose: 100.0 mg/kg/injection, schedule: Q01DX001 (ip), vehicle: saline with Tween-80) was 6 of 6.

For `CCOc1cc(Cl)c(N)c(Cl)c1`, the survivor count (dose: 400.0 mg/kg/injection, schedule: Q01DX001 (ip), vehicle: saline with Tween-80) was 1 of 6.

In the case of `CN(C)CCCc1c2ccccc2nc2ccc(Cl)cc12`, the T/C (dose: 25.0 mg/kg/injection, schedule: Q01DX009 (ip), vehicle: saline) is reported as 100, 109 (2×), 140 % of control, the survivor count [5] is reported as 6 of 6 and the survivor count [6] is reported as 1 of 6. The survivor count (dose: 150.0 mg/kg/injection, schedule: Q01DX009 (ip), vehicle: saline) was 6 of 6 and the survivor count [7] was 6 of 6.

With `CCNC(C)(C)C(SSS)c1cccs1` (stereo not given) the survivor count [1] was 2 of 6.

For `CC(C)c1ccc(N2C(N)=NC(N)=NC2(C)C)cc1`, the survivor count (dose: 50.0 mg/kg/injection, schedule: Q01DX005 (ip), vehicle: Klucel (hydroxypropylcellulose) (HPC)) was 2 of 6, the survivor count (dose: 100.0 mg/kg/injection, schedule: Q01DX005 (ip), vehicle: Klucel (hydroxypropylcellulose) (HPC)) was 0 of 6 and the survivor count (dose: 200.0 mg/kg/injection, schedule: Q01DX005 (ip), vehicle: Klucel (hydroxypropylcellulose) (HPC)) was 0 of 6.

`O=C(CC(O)(C(F)(F)F)C(F)(F)F)c1cccs1` was tested, and the T/C [4] was 125 % of control [5 of 6 alive] and the survivor count (dose: 300.0 mg/kg/injection, schedule: Q04DX003 (ip), vehicle: saline with Tween-80) was 0 of 6.

In the case of `O=C1C(=O)c2ccccc2-c2ccccc21.O=C1C(=O)c2ccccc2-c2ccccc21.[Hg]`, the T/C [2] is reported as 127 % of control and the survivor count (dose: 12.0 mg/kg/injection, schedule: Q01DX009 (ip), vehicle: saline with Tween-80) is reported as 5 of 6.

For `c1nc(SC2CCCC2)c2[nH]cnc2n1`, the survivor count [1] was 0 of 6.

In the case of `CCc1ccc(C(=O)NN)cc1`, the survivor count (dose: 400.0 mg/kg/injection, schedule: Q04DX003 (ip), vehicle: saline) is reported as 1 of 6.
